This is one part of the list. Shown are side measurements of this screen, not its main read-out; they come without a call. Compounds called inactive in the main read-out are mostly missing here. Words in brackets tell the shape of the fitted curve; partial curves, single points and poor fits give uncertain potencies.
Assay: qHTS Assay for Lipid Storage Modulators in Drosophila S3 Cells;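 for cell number change: cells counted by Cell Tracker Red CMTPX staining in the red channel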
Conditions: BODIPY lipid droplet fluorescence, 18-24 h; for cell number change: measured here: cell count max response, cells fed with added oleic acid
Outline: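 Laser-scanning cytometry quantifies lipid droplet accumulation (500–530 nm total intensity; droplet/cell object ratio) in oleic acid-fed (400 uM added) Drosophila S3 cells treated with a concentration series. 20 uM Triacsin C defined 100% inhibition.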

[1] = measured here: lipid fluorescence (Fed channel) AC50, cells fed with added oleic acid
[2] = measured here: cell number channel AC50, cells fed with added oleic acid

Row | SMILES | cell number change | AC50 [1] | AC50 [2]
1 | O=C1CN(C(=O)COC(=O)CNS(=O)(=O)c2ccccc2)c2ccccc2N1 | -21.7% | 8.2 µM [falling, partial curve] | –
2 | COc1ccccc1OCC(=O)NC1CC(C)(C)NC(C)(C)C1 | 6.58% | – | 0.103 µM [rising, full curve, poor fit]
3 | CC(C)(C)C(=O)NC(=S)Nc1sc2c(c1C(N)=O)CCC2 | – | 0.00461 µM [rising, full curve, poor fit] | –
4 | O=C(O)c1cccc(NC(=O)C2C3C=CC(C3)C2C(=O)OCC(F)(F)C(F)F)c1 (stereo unspecified) | -2.83% | 29.1 µM [falling, single point] | –
5 | O=C(O)Cc1csc(-c2cccc(F)c2)n1 | 1.4% | 1.64 µM [falling, partial curve, poor fit] | –
6 | CCOC(=O)C1CCN(C(=O)c2cccc(S(=O)(=O)N3CCc4ccccc43)c2)CC1 | 15.1% | – | 0.146 µM [falling, full curve, poor fit]
7 | Cc1cccc(C)c1OCCOC(=O)c1cccc(S(=O)(=O)N2CCOCC2)c1 | -22.5% | 4.61 µM [falling, full curve, poor fit] | –
8 | N#Cc1cn(-c2ccccc2)nc1-c1cc2ccccc2oc1=O | -10.2% | – | –
9 | Cc1cccc(CCN2CCN=C2Nc2ccccc2)c1 | -21.7% | 29.1 µM [rising, single point] | –
10 | Cc1ccc(S(=O)(=O)N2CCN(c3ccc(C(F)(F)F)cc3[N+](=O)[O-])CC2)cc1 | -14.7% | – | –
11 | CCN(CC)C(=O)CSc1nc(COc2ccccc2)nc2ccccc12 | -19% | – | –
12 | COc1ccc(OC)c(N(CC(=O)Nc2ccccc2)S(=O)(=O)c2ccccc2)c1 | -23% | – | –
13 | O=C(O)c1cccc(S(=O)(=O)N2CCc3ccccc3C2)c1 | -8.66% | – | 4.11 µM [falling, single point]
14 | CN(Cc1cccs1)C(=O)CN1CCN(S(=O)(=O)c2ccc3c(c2)OCCCO3)CC1 | -99.7% | 1.84 µM [rising, partial curve, poor fit] | 23.1 µM [falling, single point]
15 | Cc1noc(C)c1S(=O)(=O)N1CCC(C(=O)N2CCN(c3ccc(Cl)cc3)CC2)CC1 | -7.44% | – | –
16 | CNc1cnn(-c2ccccc2)c(=O)c1Cl | -18.2% | 5.17 µM [falling, full curve] | –
17 | CN(CC(=O)Nc1ccc2c(c1)OCO2)S(=O)(=O)c1ccc2c(c1)CCC(=O)N2 | 26% | – | 2.31 µM [rising, full curve, poor fit]
18 | CCSCCC(NC1=CC(=O)CC(C)(C)C1)C(=O)O (stereo unspecified) | -10% | 1.3 µM [falling, full curve, poor fit] | –
19 | COc1ccccc1NS(=O)(=O)c1cc([N+](=O)[O-])ccc1N/N=C/c1c(C)[nH]c2ccccc12 | -19.4% | – | –
20 | CCC(C)N1CCN(C(=O)c2cc(OC)cc(OC)c2)CC1 (stereo unspecified) | 21.3% | 4.11 µM [rising, partial curve, poor fit] | –

Row | SMILES | cell number change | AC50 [1] | AC50 [2]
21 | COc1cc(NC(=O)COc2cc(C)cc3oc(=O)c(C)c(C)c23)cc(OC)c1OC | 5.73% | 4.11 µM [falling, single point] | –
22 | O=C(NNS(=O)(=O)c1ccc(F)cc1)c1ccc2c(c1)OCO2 | -18.2% | 0.794 µM [falling, full curve, poor fit] | 0.316 µM [falling, full curve]
23 | C[C@H](NC(=O)N1CCn2c1nc1ccccc12)C(=O)NC1CCCCC1 | 26.7% | – | –
24 | COc1cccc(-c2ccc(NC(=O)C3CCCN(Cc4nccn4C)C3)cc2)c1 (stereo unspecified) | 27.3% | 29.1 µM [rising, single point] | –
25 | Cc1ccc(CN(C)C(=O)c2cccc(S(=O)(=O)N3CCN(Cc4ccccc4)CC3)c2)o1 | 3% | – | –
26 | O=C(OCC(=O)c1ccc[nH]1)c1ccc([N+](=O)[O-])cc1 | -0.877% | – | 0.116 µM [falling, full curve, poor fit]
27 | COC(=O)C(Cc1ccc(O)cc1)NC(=O)CCNC(=O)c1ccco1 (stereo unspecified) | 5.71% | 6.51 µM [rising, single point] | –
28 | CCOC(=O)c1[nH]c2ccccc2c1NC(=S)Nc1ccccc1 | 5.09% | 18.4 µM [rising, single point] | –
29 | CC(C)(C)c1ccc(C(=O)Nc2cccc([N+](=O)[O-])c2)cc1 | 10.5% | 0.00517 µM [rising, full curve, poor fit] | –
30 | O=C(c1ccccc1NS(=O)(=O)c1cccc([N+](=O)[O-])c1)N1CCOCC1 | -23.2% | 29.1 µM [rising, single point] | –
31 | Cc1cc(NC(=O)c2cccc([N+](=O)[O-])c2)no1 | 15.1% | – | 6.51 µM [rising, single point]
32 | O=C(Nc1ccccc1C(=O)Nc1ccc(Br)cn1)c1cccc([N+](=O)[O-])c1 | -13.5% | 4.11 µM [falling, single point] | –
33 | O=C(Cc1ccccc1)N/N=C/c1ccc(S(=O)(=O)O)o1 | -19.1% | 3.26 µM [falling, full curve, poor fit] | 0.164 µM [falling, full curve, poor fit]
34 | COc1ccc(-c2oc(NC(=O)CCl)c(C#N)c2-c2ccc(OC)cc2)cc1 | 24.4% | 1.84 µM [rising, partial curve] | –
35 | O=C(CN(c1ccc(F)cc1)S(=O)(=O)c1ccc2c(c1)OCCO2)Nc1ccc2c(c1)OCO2 | – | 0.82 µM [rising, partial curve] | 1.84 µM [rising, partial curve]
36 | Cc1cc(C(=O)Nc2cccc(O)c2)co1 | 13.1% | – | –
37 | Cc1c(C(c2cccc([N+](=O)[O-])c2O)c2c(C)n(C)n(-c3ccccc3)c2=O)c(=O)n(-c2ccccc2)n1C | 20.8% | 7.31 µM [rising, partial curve] | –
38 | CC(=O)c1cccc(NC(=O)CCS(=O)(=O)c2cccc3nonc23)c1 | 3.04% | 0.00517 µM [falling, full curve, poor fit] | –
39 | COCCN(CCOC)Cc1c(O)ccc2c3c(c(=O)oc12)CCC3 | 15.1% | 29.1 µM [rising, single point] | –

Pulled by compound from the list above, 3 records:
Row | SMILES | cell number change | AC50 [1] | AC50 [2]
38 | CC(=O)c1cccc(NC(=O)CCS(=O)(=O)c2cccc3nonc23)c1 | 3.04% | 0.00517 µM [falling, full curve, poor fit] | –
18 | CCSCCC(NC1=CC(=O)CC(C)(C)C1)C(=O)O (stereo unspecified) | -10% | 1.3 µM [falling, full curve, poor fit] | –
16 | CNc1cnn(-c2ccccc2)c(=O)c1Cl | -18.2% | 5.17 µM [falling, full curve] | –
